According to the supplement of paper PMC8728848:
Some of the results follow.

What was measured:
Experiment in all cases: glycan array binding signal (z-score within array); higher = stronger binding
Settings in all cases: glycan notation: IUPAC condensed, linker removed
[1] = molecular target: Gal(b1-4)Glc6S
In short: (§1)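 Arrays were curated from the Consortium for Functional Glycomics database, 3228 in total, and kept only where the protein sequence was available. Binding is expressed as a within-array Z-score. This score was averaged across arrays of the same protein sequence at different concentrations or buffers and across linkers, and negative values can be read as non-binding.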

[2] = molecular target: Gal(b1-4)GlcNAc
In short: as §1

[3] = molecular target: Gal(b1-4)GlcNAc(a1-6)Gal(b1-4)GlcNAc
In short: as §1

[4] = molecular target: Gal(b1-4)GlcNAc(b1-2)Man
In short: as §1

[5] = molecular target: Gal(b1-4)GlcNAc(b1-2)Man(a1-3)Man(b1-4)GlcNAc(b1-4)GlcNAc
In short: as §1

[6] = molecular target: Gal(b1-4)GlcNAc(b1-2)Man(a1-3)[Gal(b1-4)GlcNAc(b1-2)Man(a1-6)]Man(b1-4)GlcNAc(b1-4)GlcNAc
In short: as §1

[7] = molecular target: Gal(b1-4)GlcNAc(b1-2)Man(a1-3)[Gal(b1-4)GlcNAc(b1-2)Man(a1-6)]Man(b1-4)GlcNAc(b1-4)[Fuc(a1-6)]GlcNAc
In short: as §1

[8] = molecular target: Gal(b1-4)GlcNAc(b1-2)Man(a1-3)[Gal(b1-4)GlcNAc(b1-2)Man(a1-6)][Gal(b1-4)GlcNAc(b1-4)]Man(b1-4)GlcNAc(b1-4)[Fuc(a1-6)]GlcNAc
In short: as §1

[9] = molecular target: Gal(b1-4)GlcNAc(b1-2)Man(a1-3)[Gal(b1-4)GlcNAc(b1-2)Man(a1-6)][GlcNAc(b1-4)]Man(b1-4)GlcNAc(b1-4)[Fuc(a1-6)]GlcNAc
In short: as §1

[10] = molecular target: Gal(b1-4)GlcNAc(b1-2)Man(a1-3)[GlcNAc(b1-2)Man(a1-6)]Man(b1-4)GlcNAc(b1-4)GlcNAc
In short: as §1

[11] = molecular target: Gal(b1-4)GlcNAc(b1-2)Man(a1-3)[GlcNAc(b1-4)][Gal(b1-4)GlcNAc(b1-2)Man(a1-6)]Man(b1-4)GlcNAc(b1-4)GlcNAc
In short: as §1

[12] = molecular target: Gal(b1-4)GlcNAc(b1-2)Man(a1-3)[Man(a1-6)]Man(b1-4)GlcNAc(b1-4)GlcNAc
In short: as §1

[13] = molecular target: Gal(b1-4)GlcNAc(b1-2)Man(a1-6)Man(b1-4)GlcNAc(b1-4)GlcNAc
In short: as §1

[14] = molecular target: Gal(b1-4)GlcNAc(b1-2)Man(a1-6)[GlcNAc(b1-2)Man(a1-3)]Man(b1-4)GlcNAc(b1-4)GlcNAc
In short: as §1

[15] = molecular target: Gal(b1-4)GlcNAc(b1-2)Man(a1-6)[Man(a1-3)]Man(b1-4)GlcNAc(b1-4)GlcNAc
In short: as §1

[16] = molecular target: Gal(b1-4)GlcNAc(b1-2)[Gal(b1-4)GlcNAc(b1-4)]Man(a1-3)[Gal(b1-4)GlcNAc(b1-2)Man(a1-6)]Man(b1-4)GlcNAc(b1-4)GlcNAc
In short: as §1

[17] = molecular target: Gal(b1-4)GlcNAc(b1-2)[Gal(b1-4)GlcNAc(b1-4)]Man(a1-3)[Gal(b1-4)GlcNAc(b1-2)[Gal(b1-4)GlcNAc(b1-6)]Man(a1-6)]Man(b1-4)GlcNAc(b1-4)GlcNAc
In short: as §1

[18] = molecular target: Gal(b1-4)GlcNAc(b1-2)[Gal(b1-4)GlcNAc(b1-4)]Man(a1-3)[GlcNAc(b1-4)][Gal(b1-4)GlcNAc(b1-2)Man(a1-6)]Man(b1-4)GlcNAc(b1-4)GlcNAc
In short: as §1

[19] = molecular target: Gal(b1-4)GlcNAc(b1-2)[Gal(b1-4)GlcNAc(b1-4)]Man(a1-3)[GlcNAc(b1-4)][Gal(b1-4)GlcNAc(b1-2)[Gal(b1-4)GlcNAc(b1-6)]Man(a1-6)]Man(b1-4)GlcNAc(b1-4)GlcNAc
In short: as §1

[20] = molecular target: Gal(b1-4)GlcNAc(b1-2)[Gal(b1-4)GlcNAc(b1-6)]Man(a1-6)[Gal(b1-4)GlcNAc(b1-2)Man(a1-3)]Man(b1-4)GlcNAc(b1-4)GlcNAc
In short: as §1

[21] = molecular target: Gal(b1-4)GlcNAc(b1-2)[Gal(b1-4)GlcNAc(b1-6)]Man(a1-6)[Gal(b1-4)GlcNAc(b1-2)Man(a1-3)]Man(b1-4)GlcNAc(b1-4)[Fuc(a1-6)]GlcNAc
In short: as §1

[22] = molecular target: Gal(b1-4)GlcNAc(b1-2)[Gal(b1-4)GlcNAc(b1-6)]Man(a1-6)[GlcNAc(b1-4)][Gal(b1-4)GlcNAc(b1-2)Man(a1-3)]Man(b1-4)GlcNAc(b1-4)GlcNAc
In short: as §1

[23] = molecular target: Gal(b1-4)GlcNAc(b1-2)[Gal(b1-4)GlcNAc(b1-6)]Man(a1-6)[GlcNAc(b1-4)][Gal(b1-4)GlcNAc(b1-2)[Gal(b1-4)GlcNAc(b1-4)]Man(a1-3)]Man(b1-4)GlcNAc(b1-4)[Fuc(a1-6)]GlcNAc
In short: as §1

[24] = molecular target: Gal(b1-4)GlcNAc(b1-3)Gal(b1-3)GalNAc
In short: as §1

[25] = molecular target: Gal(b1-4)GlcNAc(b1-3)Gal(b1-3)GlcNAc
In short: as §1

[26] = molecular target: Gal(b1-4)GlcNAc(b1-3)Gal(b1-4)Glc
In short: as §1

[27] = molecular target: Gal(b1-4)GlcNAc(b1-3)Gal(b1-4)GlcNAc
In short: as §1

[28] = molecular target: Gal(b1-4)GlcNAc(b1-3)Gal(b1-4)GlcNAc(b1-2)Man(a1-3)[Gal(b1-4)GlcNAc(b1-3)Gal(b1-4)GlcNAc(b1-2)Man(a1-6)]Man(b1-4)GlcNAc(b1-4)GlcNAc
In short: as §1

[29] = molecular target: Gal(b1-4)GlcNAc(b1-3)Gal(b1-4)GlcNAc(b1-2)Man(a1-3)[Gal(b1-4)GlcNAc(b1-3)Gal(b1-4)GlcNAc(b1-2)Man(a1-6)]Man(b1-4)GlcNAc(b1-4)[Fuc(a1-6)]GlcNAc
In short: as §1

[30] = molecular target: Gal(b1-4)GlcNAc(b1-3)Gal(b1-4)GlcNAc(b1-2)[Gal(b1-4)GlcNAc(b1-3)Gal(b1-4)GlcNAc(b1-6)]Man(a1-6)[Gal(b1-4)GlcNAc(b1-3)Gal(b1-4)GlcNAc(b1-2)Man(a1-3)]Man(b1-4)GlcNAc(b1-4)GlcNAc
In short: as §1

B1: GroEL (Clostridium difficile), Q18CT5 (protein)
chain: MAKEIKFSEETRRALEAGVNKLADTVKVTLGPKGRNVILDKKFGSPLITNDGVTIAKEIELEDRFENMGAQLVKEVATKTNDVAGDGTTTATVLAQAIIREGLKNVTAGANPILLRKGIQKAVTVAVEELKNQSRIVETQEAISQVASISAGDEEVGKLIAEAMEIVGKDGVITVEESQTMNTELDAVEGMQFDRGFVSAYMVTDVDKMEAVLNDPYILITDKKISNIQELLPVLEQIVQQGKKLLIIAEDVEGEALSTLVVNKLRGTFDVVAVKAPGFGDRRKEMLQDIAILTGAQVISEELGYDLKEADLSMLGRASSVKVTKESTTIVDGSGDKKAIEDRVTQIKHQVEQTTSDFDREKLMERLAKLAGGVAVVKVGAATEVELKERKLRIEDALNATRAAVEEGIVAGGGTAFVSVIPAIGTLIESLEGEVKLGAQIVKKALEEPLRQIAINAGLEGAVIVQNVVNSEAETGFDALNEKYVNMIEAGIVDPTKVSRSALQNAASIASTFLTTEAAVADLPEKEDAGMPGMGGGMPGMM
[1]
  glycan array binding signal (z-score): 0.425
[2]
  glycan array binding signal (z-score): 0.1
[3]
  glycan array binding signal (z-score): 0.336
[4]
  glycan array binding signal (z-score): -0.708
[5]
  glycan array binding signal (z-score): -1.13
[6]
  glycan array binding signal (z-score): 0.454
[7]
  glycan array binding signal (z-score): -0.001
[8]
  glycan array binding signal (z-score): -0.706
[9]
  glycan array binding signal (z-score): -0.656
[10]
  glycan array binding signal (z-score): 1.68
[11]
  glycan array binding signal (z-score): 0.916
[12]
  glycan array binding signal (z-score): 0.894
[13]
  glycan array binding signal (z-score): -1.22
[14]
  glycan array binding signal (z-score): 0.881
[15]
  glycan array binding signal (z-score): 0.734
[16]
  glycan array binding signal (z-score): 2.79
[17]
  glycan array binding signal (z-score): -0.833
[18]
  glycan array binding signal (z-score): -0.166
[19]
  glycan array binding signal (z-score): -1.18
[20]
  glycan array binding signal (z-score): 0.19
[21]
  glycan array binding signal (z-score): -0.447
[22]
  glycan array binding signal (z-score): -0.543
[23]
  glycan array binding signal (z-score): -1
[24]
  glycan array binding signal (z-score): 0.592
[25]
  glycan array binding signal (z-score): -1.05
[26]
  glycan array binding signal (z-score): -0.934
[27]
  glycan array binding signal (z-score): -0.371
[28]
  glycan array binding signal (z-score): -0.644
[29]
  glycan array binding signal (z-score): 0.137
[30]
  glycan array binding signal (z-score): 0.232
